# Source: paper PMC3053220
# Amino acid sequences for entries named in this document (tags omitted). A change or cut given only in a name is not applied to a line headed by its entry. Chains listed by the source or under a name are the forms on record and can include a tag or linker. Residues count along the entry.
# UniProt Q9HC98: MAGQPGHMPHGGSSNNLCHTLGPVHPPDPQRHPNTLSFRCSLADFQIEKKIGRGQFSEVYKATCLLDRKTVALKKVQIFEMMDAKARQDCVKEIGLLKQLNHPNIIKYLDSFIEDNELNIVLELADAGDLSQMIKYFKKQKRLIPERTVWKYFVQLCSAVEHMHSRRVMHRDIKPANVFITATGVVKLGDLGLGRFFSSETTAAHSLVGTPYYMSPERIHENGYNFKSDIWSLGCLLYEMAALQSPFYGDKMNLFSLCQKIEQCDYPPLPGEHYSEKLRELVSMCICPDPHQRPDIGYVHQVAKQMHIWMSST
# truncated hNek6 wild-type kinase domain fused to a 6xHis tag (6xHis-hNek6(Δ1-44)): residues 45-313 of Q9HC98
# Results are given in words; binding and its absence hold for the method and conditions named.
# Columns and labels:
# [1] = target: activation loop mutant hNek6(S206A) fused to a 6xHis tag (6xHis-hNek6(S206A)) (human) (UniProt Q9HC98); experiment: SAXS; 6xHis-hNek6(S206A) at 0.5 and 1.0 mg/mL, 4°C, 50 mM HEPES pH 7.5, 5 mM sodium phosphate, 300 mM NaCl, 5% glycerol, 200 mM imidazole; molecular mass from I(0) with BSA as standard; both purified
# [2] = target: activation loop mutant hNek6(S206A) fused to a 6xHis tag (6xHis-hNek6(S206A)) (human) (UniProt Q9HC98); experiment: SEC-MALS; Superdex 200 10/300 GL, 20°C, 0.2 to 0.7 mg/ml; two buffers: 50 mM HEPES pH 7.5, 5 mM sodium phosphate, 600 mM NaCl, 5% glycerol, and 50 mM HEPES pH 7.5, 5 mM sodium phosphate, 300 mM NaCl, 5% glycerol, 200 mM imidazole; both purified
# [3] = target: dephosphorylated mutant hNek6(S206A) fused to a 6xHis tag (6xHis-hNek6(S206A)D) (human) (UniProt Q9HC98); experiment: as above
# [4] = target: dephosphorylated wild-type hNek6 fused to a 6xHis tag (6xHis-hNek6wtD) (human) (UniProt Q9HC98); experiment: as above
# [5] = target: truncated hNek6 wild-type kinase domain fused to a 6xHis tag (6xHis-hNek6(Δ1-44)) (human) (UniProt Q9HC98); experiment: as above
substance,measurement,setting,value
activation loop mutant hNek6(S206A) fused to a 6xHis tag (6xHis-hNek6(S206A)) (from UniProt Q9HC98-1 1-313) (enzyme),binding,[1],no binding (tested: 0.5 and 1.0 mg/mL)
same,binding,[2],no binding (tested: 0.2 to 0.7 mg/ml)
dephosphorylated mutant hNek6(S206A) fused to a 6xHis tag (6xHis-hNek6(S206A)D) (from UniProt Q9HC98-1 1-313) (enzyme),binding,[3],no binding (tested: 0.2 to 0.7 mg/ml)
dephosphorylated wild-type hNek6 fused to a 6xHis tag (6xHis-hNek6wtD) (from UniProt Q9HC98-1 1-313) (enzyme),binding,[4],no binding (tested: 0.2 to 0.7 mg/ml)
truncated hNek6 wild-type kinase domain fused to a 6xHis tag (6xHis-hNek6(Δ1-44)) (from UniProt Q9HC98-1 45-313) (domain or fragment),binding,[5],no binding (tested: 0.2 to 0.7 mg/ml)
